Cell number after 72 h of treatment

Source: doi:10.1371/journal.pone.0140310, primary screening data, rounded.

Compounds and concentrations:
GW0742: Cc1cc(SCc2sc(-c3ccc(C(F)(F)F)c(F)c3)nc2C)ccc1OCC(=O)O at 2000 nM
KU-55933: O=c1cc(-c2cccc3c2Sc2ccccc2S3)oc(N2CCOCC2)c1 at 1000 nM
LFM-A13: C/C(O)=C(\C#N)C(=O)Nc1cc(Br)ccc1Br at 2000 nM
decitabine: Nc1ncn([C@H]2C[C@H](O)[C@@H](CO)O2)c(=O)n1 at 100 nM
embelin: CCCCCCCCCCCC1=C(O)C(=O)C=C(O)C1=O at 1200 nM
pioglitazone: CCc1ccc(CCOc2ccc(CC3SC(=O)NC3=O)cc2)nc1 (stereo unspecified) at 2000 nM
lapatinib: CS(=O)(=O)CCNCc1ccc(-c2ccc3ncnc(Nc4ccc(OCc5cccc(F)c5)c(Cl)c4)c3c2)o1 at 800 nM
tozasertib: Cc1cc(Nc2cc(N3CCN(C)CC3)nc(Sc3ccc(NC(=O)C4CC4)cc3)n2)n[nH]1 at 6 nM
BI-78D3: O=c1[nH]nc(Sc2ncc([N+](=O)[O-])s2)n1-c1ccc2c(c1)OCCO2 at 200 nM
fingolimod: CCCCCCCCc1ccc(CCC(N)(CO)CO)cc1 at 2000 nM
cisplatin: N.N.[Cl][Pt][Cl] at 1600 nM
selumetinib: Cn1cnc2c(F)c(Nc3ccc(Br)cc3Cl)c(C(=O)NOCCO)cc21 at 15 nM
NVP-BEZ235: Cn1c(=O)n(-c2ccc(C(C)(C)C#N)cc2)c2c3cc(-c4cnc5ccccc5c4)ccc3ncc21 at 4 nM
CX-4945: O=C(O)c1ccc2c(c1)nc(Nc1cccc(Cl)c1)c1ccncc12 at 400 nM
SNS-314: O=C(Nc1cccc(Cl)c1)Nc1ncc(CCNc2ncnc3ccsc23)s1 at 0.8 nM
nilutamide: CC1(C)NC(=O)N(c2ccc([N+](=O)[O-])c(C(F)(F)F)c2)C1=O at 1000 nM
RKI-983: C[C@@H](N)c1ccc(C(=O)Nc2ccnc3[nH]ccc23)cc1 at 400 nM
PD173074: CCN(CC)CCCCNc1ncc2cc(-c3cc(OC)cc(OC)c3)c(NC(=O)NC(C)(C)C)nc2n1 at 100 nM

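Human melanoma cell lines in 1,536-well plates were treated with two drugs together for 72 h, then fixed, stained and imaged. Values are the number of DAPI-stained nuclei as a percentage of the DMSO control: 100 is no effect, lower means fewer cells. Every drug was used at one fixed concentration, the lower of two screened (a fifth of the higher). These are primary screening values without error estimates.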 This is part of the screen, not chosen by result. A dash means that no value is listed here.

Combination,A101D,COLO 800,C32,IST-MEL1,LB2518-MEL,G-361,LOX IMVI,A375
CX-4945 + NVP-BEZ235,90.1,103,90.4,92.2,107,105,77.3,89.5
SNS-314 + fingolimod,79.1,-,66.7,-,-,-,-,65.2
fingolimod + GW0742,96.4,-,91.0,-,-,-,-,-
NVP-BEZ235 + tozasertib,91.5,104,107,89.2,107,113,77.0,94.4
NVP-BEZ235 + KU-55933,98.9,91.0,92.8,94.5,126,99.9,113,-
KU-55933 + embelin,99.6,-,101,-,-,-,-,100
cisplatin + tozasertib,-,-,101,-,-,-,-,-
LFM-A13 + CX-4945,106,79.4,93.4,101,-,83.2,69.5,-
NVP-BEZ235 + BI-78D3,104,76.5,104,92.7,113,79.4,90.6,89.9
RKI-983 + pioglitazone,-,-,105,-,-,-,-,-
fingolimod + NVP-BEZ235,55.7,66.4,80.5,97.1,93.0,86.7,100,59.0
BI-78D3 + SNS-314,102,-,87.3,-,-,-,-,85.7
lapatinib + GW0742,-,-,107,-,-,-,-,-
PD173074 + decitabine,88.1,85.9,88.7,88.4,94.8,85.4,89.2,-
decitabine + GW0742,90.6,-,95.5,-,-,-,-,-
KU-55933 + GW0742,97.2,160,79.0,96.6,115,99.6,134,99.0
embelin + RKI-983,74.9,-,77.7,-,-,-,-,-
tozasertib + RKI-983,99.3,151,73.8,103,141,107,96.0,93.4
GW0742 + selumetinib,88.7,-,90.7,-,-,-,-,-
CX-4945 + decitabine,106,77.2,107,82.5,87.9,87.2,75.8,91.8
cisplatin + selumetinib,-,79.2,-,86.5,67.7,105,112,-
lapatinib + CX-4945,101,108,90.4,107,98.2,100,44.1,90.4
KU-55933 + nilutamide,117,121,94.3,97.8,126,98.6,114,105
RKI-983 + nilutamide,93.9,-,78.4,-,-,-,-,69.4

Some entries from above, unchanged:

Combination,A101D,COLO 800,C32,IST-MEL1,LB2518-MEL,G-361,LOX IMVI,A375
NVP-BEZ235 + BI-78D3,104,76.5,104,92.7,113,79.4,90.6,89.9
GW0742 + selumetinib,88.7,-,90.7,-,-,-,-,-